Assay results published in publication PMC10163288.
The other results are listed elsewhere or left out.

B1: il10ra_site1_normal_mot_HHH_b1_05056_000000217_0001_1_20_H_._HHH_b2_06767_0001_0000300019_0000002_0 (protein)
chain: SSSSDEEELEELLEELKRLIEEGDKEEALKLVQRIIRLAFRLRDPEALQLLWELVRALANSSSSS
B2: il10ra_site1_sap_23_mot_HHH_b2_07873_af2_000000172_0001_1_19_H_._HHH_b2_07828_af2_0001_0000600031_0000001_0_0001 (protein)
chain: SSSSSSEEYEERVEELLERLEEVSPQEAYELLREAIELAAEANDHELFRLIMEALERFMRSSSSS
B3: il10ra_site1_normal_mot_HHH_b2_05323_000000159_0001_1_18_H_._HHH_b2_04323_af2_0001_0000600011_0000002_0 (protein)
chain: SSSSSEEKEEALELALRAFRLALRGNPEEAKELLERAAELAEELGDERLLRIIRDLLQALKSSSS
B4: il10ra_site1_normal_mot_HHH_b1_01821_000000158_0001_23_39_H_._HHH_b1_00069_af2_0001_0000200020_0000002_0 (protein)
chain: SSSSDEEERLKELLEELEEAVRRGDEELVSELALEAIRLAIRLSDEEALQEIWELFKEAISSSSS
B5: il10ra_site1_sap_18_mot_HHH_b2_02053_af2_000000006_0001_3_19_H_._HHH_b2_07330_0001_0000300019_0000001_0_0001 (protein)
chain: SSSSSEESEIALRFHEAMLRQAIELNNKEAFRSALRALRALAELYNDPEVEEVIRELEELFSSSS
B6: il10ra_site1_normal_mot_HHH_b1_06914_000000280_0001_1_18_H_._HHH_b1_02402_0001_0000100007_0000002_0 (protein)
chain: SSSSDLEEIYELSREAAELLAEGDDEEARRVVEEAEEIAERANNEVALFTLEYLLRQIERQSSSS
B7: il10ra_site1_sap_21_mot_HHH_b2_03220_af2_000000223_0001_23_40_H_._HHH_b2_06833_0001_0000300025_0000001_0_0001 (protein)
chain: SSSSSQEAYEILKEAIELIIELARRGNEEEAEKVFEEARELLEELGDRLAVWQLEFAFRRASSSS
B8: il10ra_site1_normal_mot_HHH_b1_00999_000000080_0001_41_55_H_._HHH_b1_02815_0001_0000300012_0000002_0 (protein)
chain: SSSSDEEEEESEELLKELKKLLEEGDQHRFLRLLQEIVRFAFRVSDEELLQAVWELAKKWGSSSS
B9: il10ra_site1_sap_21_mot_HHH_b1_08477_000000091_0001_40_57_H_._HHH_b2_03698_af2_0001_0000800004_0000001_0_0001 (protein)
chain: SSSSSSDRRRRIYELIHRAFEIDDEEEVRELLEEAKELAEEANDRLFLLQVEVVERAISSSSSSS
B10: il10ra_site1_sap_17_mot_65b8060e20531850bca9f2e11f97d954_0001_af2_000000137_0001_17_31_H_._HHH_b1_05533_0001_0000400016_0000002_0_0001 (protein)
chain: SSSSSDEEERQESERLLEELEELTDPEELMRVAREIIRLAFRLSDEELLQALWRLVKELSSSSSS
B11: il10ra_site1_sap_16_mot_HHH_b1_08411_af2_000000053_0001_1_20_H_._HHH_b1_01084_0001_0000400010_0000001_0_0001_af2pred_dldesign_0_af2pred (protein)
chain: SSSSSEAEALFAELEAAAAAGDEAAVRELSVRLHRLATERKDLELLKKAWDLLVDFYRKLSSSSS
B12: il10ra_site1_sap_16_mot_HHH_b2_07006_000000108_0001_1_19_H_._HHH_b2_01074_0001_0000400016_0000001_0_0001 (protein)
chain: SSSSDVEELLEEAEELLEKGNPREAARVLAEAVRLVFEEGDKELLQRIWELVQEVRRLAKSSSSS
B13: il10ra_site1_sap_18_mot_HHH_b1_07380_000000129_0001_1_20_H_._HHH_b1_07572_0001_0000100004_0000001_0_0001_af2pred_0001 (protein)
chain: SSSSSEVIHRALELMSKAFKLALEGNPEEAEKVLEEVEELARENNDERLRQLVEALERFLSSSSS
B14: il10ra_site1_normal_mot_HHH_b2_04646_000000019_0001_1_20_H_._ems_3hC_245_0002_0001_0000100001_0000001_0 (protein)
chain: SSDEEERVLDELLREFVKLFANAKSDEEVQEVAEEVIEEAEKANTEAAKIVIEAVRRILEDATSS
B15: il10ra_site1_normal_mot_HHH_b2_00475_000000107_0001_44_57_H_._HHH_b2_03520_0001_0000600038_0000001_0 (protein)
chain: SSSSDEEEVSHLLFRALELLFRGDKEEAEELVEEAKEIAEESNDPELQRYVEIAEHFVKAHSSSS
B16: il10ra_site1_sap_16_mot_HHH_b1_06789_af2_000000041_0001_1_20_H_._HHH_b2_00440_af2_0001_0000100003_0000002_0_0001 (protein)
chain: SSSSSDEEEEEVRELLEEAEKIEDPRERAEVLARALRVAWEGRNPELLRAVDEVAIKLYWSSSSS
B17: il10ra_site1_normal_mot_HHH_b1_03900_000000129_0001_1_16_H_._HHH_b1_01328_af2_0001_0000200004_0000002_0 (protein)
chain: SSSSDERKRRLYELIQRIARLLIRGNPEEAQELVEELRELAEELNDEAAKRAVEILEEAINSSSS
B18: il10ra_site1_normal_mot_HHH_b2_05532_000000217_0001_1_18_H_._HHH_b1_06601_0001_0000800040_0000001_0_af2pred_dldesign_0_af2pred (protein)
chain: SSSSDPEAALAEAKARMEALIAAGKYDEANQLATETARALAEAGHPELARELVRMMWEKLKSSSS
B19: il10ra_site1_sap_15_mot_8756ee2cf497b5429c717dfc0c0bcfd6_0001_000000186_0001_1_13_H_._HHH_b1_05891_af2_0001_0000400025_0000002_0_0001 (protein)
chain: SKVQRALRIAYQRSDPEVLRALWRLVQALYEDPNNEEAREVLELLIRALEEGDPEKVEEAVELAR

Molecular target: il10ra, Q13651
Experiment: yeast display titration

| Binder | apparent Kd |
| --- | --- |
| B1 | inactive: no binding seen |
| B2 | inactive: no binding seen |
| B3 | inactive: no binding seen |
| B4 | inactive: no binding seen |
| B5 | inactive: no binding seen |
| B6 | inactive: no binding seen |
| B7 | inactive: no binding seen |
| B8 | inactive: no binding seen |
| B9 | inactive: no binding seen |
| B10 | inactive: no binding seen |
| B11 | inactive: no binding seen |
| B12 | inactive: no binding seen |
| B13 | inactive: no binding seen |
| B14 | inactive: no binding seen |
| B15 | inactive: no binding seen |
| B16 | inactive: no binding seen |
| B17 | inactive: no binding seen |
| B18 | inactive: no binding seen |
| B19 | inactive: no binding seen |

As entered above:
B18 – apparent Kd: inactive: no binding seen
B15 – apparent Kd: inactive: no binding seen
